Test results taken from US20210206856A1.
Results are given in words; binding and its absence hold for the method and conditions named. A result given as binding can be weak or reduced; the word gives no strength.

B1: MAdCAM Antibody Table 1 Clone 27 (scFv)
scFv: QVQLVQSGAEVKKPGASVKVSCKASGYTFTGYYIHWVRQAPGQGLEWMGWMNPNSGNTGYAQKFQGRVTMTRDTSTSTVYMELSSLRSEDTAVYYCARDPGFLGYCSGGSCYDGWFDPWGQGTLVTVSSGGGGSGGGGSGGGGSGGGGSDIQMTQSPSSLSASVGDRVTITCRASQSISSYLHWYQQKPGKAPKLLIYAASSLQSGVPSRFSGSGSGTDFTLTISSLQPEDFATYYCQQSYTAPYTFGQGTKLEIK
B2: MAdCAM Antibody Table 1 Clone 29 (scFv)
scFv: QVQLVQSGAEVKKPGASVKVSCKASGYTFTSYYMHWVRQAPGQGLEWMAWMNPNSGNTGYAQKFQGRVTMTRDTSTSTVYMELSSLRSEDTAVYYCARDYDFWSGSLGYWGQGTLVTVSSGGGGSGGGGSGGGGSGGGGSDIQMTQSPSSLSASVGDRVTITCRASQGISNYLAWYQQKPGKAPKLLIYAASSLQSGVPSRFSGSGSGTDFTLTISSLQPEDFATYYCQQSYSTPWTFGQGTKVEIK
B3: MAdCAM Antibody Table 1 Clone 30 (scFv)
scFv: QVQLVQSGAEVKKPGASVKVSCKASGYTLTTWYMYWVRQAPGQGLEWMGWINPNRGATNYAQKFQGRVTMTRDTSTSTVYMELSSLRSEDTAVYYCAKGDLWGAMDVWGQGTLVTVSSGGGGSGGGGSGGGGSGGGGSDIQMTQSPSSLSASVGDRVTITCRASDNIGSWLAWYQQKPGKAPKLLIYAASSLQSGVPSRFSGSGSGTDFTLTISSLQPEDFATYYCQQGYSTPPTFGQGTKVEIK
B4: MAdCAM Antibody Table 1 Clone 31 (scFv)
scFv: QVQLVQSGAEVKKPGASVKVSCKASGYTFTSYYMHWVRQAPGQGLEWMGIINPSGGSTSYAQKFQGRVTMTRDTSTSTVYMELSSLRSEDTAVYYCARDTGYSYGRYYYYGMDVWGQGTLVTVSSGGGGSGGGGSGGGGSGGGGSDIQMTQSPSSLSASVGDRVTITCRASQSIGRWLAWYQQKPGKAPKLLIYDASNLQSGVPSRFSGSGSGTDFTLTISSLQPEDFATYYCQQSYSIPITFGQGTKVEIK
B5: MAdCAM Antibody Table 1 Clone 33 (scFv)
scFv: QVQLVQSGAEVKKPGASVKVSCKASGYTFTSYGISWVRQAPGQGLEWMGWMHPKSGDTGLTQKFQGRVTMTRDTSTSTVYMELSSLRSEDTAVYYCARDTPYYYYGMDVWGQGTTVTVSSGGGGSGGGGSGGGGSGGGGSDIQMTQSPSSLSASVGDRVTITCRASQSISSWLAWYQQKPGKAPKLLIYAASSLQSGVPSRFSGSGSGTDFTLTISSLQPEDFATYYCQQSYSVPITFGQGTKVEIK
B6: MAdCAM Antibody Table 1 Clone 35 (scFv)
scFv: EVQLLESGGGLVQPGGSLRLSCAASGFSFSSYTMNWVRQAPGKGLEWVSFITSSSRTIYYADSVKGRFTISRDNSKNTLYLQMNSLRAEDTAVYYCARDRRGDYGDSWYFDLWGRGTLVTVSSGGGGSGGGGSGGGGSGGGGSEIVMTQSPATLSVSPGERATLSCRASQSVRNYLAWYQQKPGQAPRLLIYGASTRATGIPARFSGSGSGTEFTLTISSLQSEDFAVYYCQQYGSSPLTFGGGTKVEIK
B7: MAdCAM Antibody Table 1 Clone 36 (scFv)
scFv: QVQLVQSGAEVKKPGASVKVSCKASGYTFTGHYMHWVRQAPGQGLEWMGIINPSGGSTSYAQKFQGRVTMTRDTSTSTVYMELSSLRSEDTAVYYCARDTGYSYGRYYYYGMDVWGQGTTVTVSSGGGGSGGGGSGGGGSGGGGSDIQMTQSPSSLSASVGDRVTITCRASQSIGRWLAWYQQKPGKAPKLLIYDASNLQSGVPSRFSGSGSGTDFTLTISSLQPEDFATYYCQQSYSIPITFGGGTKVEIK
B8: MAdCAM Antibody Table 1 Clone 38 (scFv)
scFv: EVQLLESGGGLVQPGGSLRLSCAASGFTFGSYSMSWVRQAPGKGLEWVSAIGTGGGTYYADSVKGRFTISRDNSKNTLYLQMNSLRAEDTAVYYCAKGTPYYYYYGMDVWGQGTMVTVSSGGGGSGGGGSGGGGSGGGGSDIQMTQSPSSLSASVGDRVTITCRASQPLSNWLAWYQQKPGKAPKLLIYAASSLQSGVPSRFSGSGSGTDFTLTISSLQPEDFATYYCQQAISFPLTFGGGTKVEIK
B9: MAdCAM Antibody Table 1 Clone 39 (scFv)
scFv: QVQLVQSGAEVKKPGASVKVSCKASGYTFTSYYMHWVRQAPGQGLEWMGWMNPNSGNTGYAQKFQGRVTMTRDTSTSTVYMELSSLRSEDTAVYYCARDLGYYDSSGYFGAFDIWGQGTTVTVSSGGGGSGGGGSGGGGSGGGGSDIQMTQSPSSLSASVGDRVTITCQSSEDISSSLNWYQQKPGKAPKLLIYAASSLQIGVPSRFSGSGSGTDFTLTISSLQPEDFATYYCQQTYSTPYTFGQGTKVEIK
B10: MAdCAM Antibody Table 1 Clone 40 (scFv)
scFv: QVQLVQSGAEVKKPGASVKVSCKASGYTFTSYGISWVRQAPGQGLEWMGIINPRGGSTIFAQKFQGRVTMTRDTSTSTVYMELSSLRSEDTAVYYCARGTRSSGWYGWFDPWGQGTLVTVSSGGGGSGGGGSGGGGSGGGGSDIQMTQSPSSLSASVGDRVTITCRASQGIGNWLAWYQQKPGKAPKLLIYAASNLETGVPSRFSGSGSGTDFTLTISSLQPEDFATYYCQQIHSYPLTFGGGTKVEIK
B11: MAdCAM Antibody Table 1 Clone 42 (scFv)
scFv: QVQLVQSGAEVKKPGSSVKVSCKASGGTLSRYGVSWVRQAPGQGLEWMGGIIPIFGTTNYAQKFQGRVTITADESTSTAYMELSSLRSEDTAVYYCARDRVYYDSSGYPTWYFDLWGRGTLVTVSSGGGGSGGGGSGGGGSGGGGSEIVMTQSPATLSVSPGERATLSCRASQSVSSSYLAWYQQKPGQAPRLLIYGASTRATGIPARFSGSGSGTEFTLTISSLQSEDFAVYYCQQYGSSPITFGQGTKVEIK
B12: MAdCAM Antibody Table 1 Clone 43 (scFv)
scFv: EVQLLESGGGLVQPGGSLRLSCAASGFTFDDFAMHWVRQAPGKGLEWVSGISGNGDSRYYADSVKGRFTISRDNSKNTLYLQMNSLRAEDTAVYYCARDASYGGNYGMDVWGQGTTVTVSSGGGGSGGGGSGGGGSGGGGSDIQMTQSPSSLSASVGDRVTITCQASQDIRNYLNWYQQKPGKAPKLLIYKASTLESGVPSRFSGSGSGTDFTLTISSLQPEDFATYYCQQANSFPLTFGPGTKVDIK
B13: MAdCAM Antibody Table 1 Clone 44 (scFv)
scFv: EVQLVESGGGLVKPGGSLRLSCAASGFTFSSYWMSWVRQAPGKGLEWVSAIGTGGGTYYAAPVKGRFTISRDDSKNTLYLQMNSLKTEDTAVYYCAREWLVPYYGMDVWGQGTTVTVSSGGGGSGGGGSGGGGSGGGGSDIQMTQSPSSLSASVGDRVTITCRASQSISRWLAWYQQKPGKAPKLLIYGASNLQSGVPSRFSGSGSGTDFTLTISSLQPEDFATYYCQQSYSTPWTFGQGTKVEIK
B14: MAdCAM Antibody Table 1 Clone 48 (scFv)
scFv: EVQLLESGGGLVQPGGSLRLSCAASGFTFSDHGMHWVRQAPGKGLEWVSVIYGGESTYYADSVKGRFTISRDNSKNTLYLQMNSLRAEDTAVYYCARDPAVAGGGIFDYWGQGTLVTVSSGGGGSGGGGSGGGGSGGGGSDIQMTQSPSSLSASVGDRVTITCRASQGISNYLAWYQQKPGKAPKLLIYDASNLETGVPSRFSGSGSGTDFTLTISSLQPEDFATYYCQQSYSTCYTFGQGTKLEIK
B15: MAdCAM Antibody Table 1 Clone 49 (scFv)
scFv: QVQLVQSGAEVKKPGASVKVSCKASGDTFTGYYIHWVRQAPGQGLEWMGWINPNSGGTNYAQKFQGRVTMTRDTSTSTVYMELSSLRSEDTAVYYCARSGLWLGSYYGMDVWGQGTLVTVSSGGGGSGGGGSGGGGSGGGGSDIQMTQSPSSLSASVGDRVTITCRASQTISIWLAWYQQKPGKAPKLLIYDASTLQSGVPSRFSGSGSGTDFTLTISSLQPEDFATYYCQQYSSYPLTFGQGTKVEIK
B16: MAdCAM Antibody Table 1 Clone 50 (scFv)
scFv: QVQLVQSGAEVKKPGASVKVSCKASGYTFTSYDINWVRQAPGQGLEWMGWINPNSGTTGYAQKFQGRVTMTRDTSTSTVYMELSSLRSEDTAVYYCARSPYYYYGMDVWGQGTTVTVSSGGGGSGGGGSGGGGSGGGGSDIQMTQSPSSLSASVGDRVTITCRASHFISRWVAWYQQKPGKAPKLLIYAASTLQSGVPSRFSGSGSGTDFTLTISSLQPEDFATYYCQQSYSGISFGPGTKVDIK
B17: MAdCAM Antibody Table 1 Clone 51 (scFv)
scFv: EVQLLESGGGLVQPGGSLRLSCAASGFTFNNYGMNWVRQAPGKGLEWVSRINSDGSSTSYADSVKGRFTISRDNSKNTLYLQMNSLRAEDTAVYYCARGAYYYYYMDVWGQGTLVTVSSGGGGSGGGGSGGGGSGGGGSEIVMTQSPATLSVSPGERATLSCRASQSVSGSYLAWYQQKPGQAPRLLIYATSSRASGIPARFSGSGSGTEFTLTISSLQSEDFAVYYCQQYYSGLTFGQGTKVEIK
B18: MAdCAM Antibody Table 1 Clone 52 (scFv)
scFv: EVQLLESGGGLVQPGGSLRLSCAASGFTFSNSDMNWVRQAPGKGLEWVAHIWNDGSQKYYADSVKGRFTISRDNSKNTLYLQMNSLRAEDTAVYYCARDRTDPGYSSAMDVWGQGTTVTVSSGGGGSGGGGSGGGGSGGGGSDIQMTQSPSSLSASVGDRVTITCRASQDIRNYLGWYQQKPGKAPKLLIYDASSLETGVPSRFSGSGSGTDFTLTISSLQPEDFATYYCQQATSLPLTFGGGTKVEIK
B19: MAdCAM Antibody Table 1 Clone 53 (scFv)
scFv: QVQLVQSGAEVKKPGASVKVSCKASGYTFTSYDINWVRQAPGQGLEWMGWMNPNSGNTGYAQKFQGRVTMTRDTSTSTVYMELSSLRSEDTAVYYCAKDSDYSNLLWDYWGQGTLVTVSSGGGGSGGGGSGGGGSGGGGSDIQMTQSPSSLSASVGDRVTITCRASQDITNDLGWYQQKPGKAPKLLIYQASSLESGVPSRFSGSGSGTDFTLTISSLQPEDFATYYCQQSYTIPLTFGQGTKVEIK
B20: MAdCAM Antibody Table 1 Clone 54 (scFv)
scFv: EVQLLESGGGLVQPGGSLRLSCAASGFTFGDYAMSWVRQAPGKGLEWVAVVSYDGTNKYYADSVKGRFTISRDNSKNTLYLQMNSLRAEDTAVYYCAKDICSSTSCYFDLWGRGTLVTVSSGGGGSGGGGSGGGGSGGGGSDIQMTQSPSSLSASVGDRVTITCRASQNINNYVNWYQQKPGKAPKLLIYDASNLETGVPSRFSGSGSGTDFTLTISSLQPEDFATYYCQQANSFPPTFGQGTRLEIK

Target: cyno MAdCAM protein (cyno)
Assay: ELISA

Binder | binding
B1 | binds
B2 | binds
B3 | binds
B4 | binds
B5 | binds
B6 | binds
B7 | binds
B8 | binds
B9 | binds
B10 | binds
B11 | binds
B12 | binds
B13 | binds
B14 | binds
B15 | binds
B16 | binds
B17 | binds
B18 | binds
B19 | binds
B20 | binds
